Measured values as given in the supplement of paper PMC11237882.
This is one part of the list. Values are worked out from sequencing counts and are noisy.

T1: Homer1 EVH1 domain
T1 chain: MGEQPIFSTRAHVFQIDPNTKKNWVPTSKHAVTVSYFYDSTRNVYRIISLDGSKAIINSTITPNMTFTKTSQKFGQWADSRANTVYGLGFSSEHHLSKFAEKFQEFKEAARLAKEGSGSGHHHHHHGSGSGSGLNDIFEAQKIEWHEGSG


Target: T1, Homer1 EVH1 domain
Test: enrichment score (AUC of log2 frequency ratio across FACS sorting rounds) (log2 AUC); higher = stronger enrichment for Homer1 EVH1 binding

Binder | enrichment score
LSFAGTTALLLQGLFIVLILVGYISVKVMLKSIKTR | 0.74
NARKQLLISAVPAVLILHLKRFHQAGLSLRKVNRHV | 3.47
TANSLILVIFILGLFVLGIASILYYYFSMEAASLSL | 2.17
KRQEYRSMKGLRWEDTRDTAAIFLIFSIFIIIGFFI | -0.279
MTPKQSKVVKAILWLCGIQEKGKEELPARAEAIIVS | -0.141
PSQRYPLWYKNMVSLWILFGMAWLALIIKLILSLQE | 0.637
VVILIFYLITLIGNLFIIILSYLDSHLHTPMYFFLS | -0.31
VHRFARHVSPLINVLMANVLLLVPPLTNPIVYCVKT | 1.15
FVVVLSFLLGGYLLFVLYLAATNQTTNEWYRGDWAW | 0.342
GSAGHTTLGITLMIGGVTCILSLICALALAYLDQRA | 3.1
ALDRMKNPVTKHWRELTGVLILVNSLGGFACNCILH | 1.11
PRWVPKEALTGLVCLVCFLSATCFTLQSGNYWLEIF | 0.014
MFATFAQIQQKSILVWLFSRLYLYSFISLFIYMILS | -0.524
ASGVGFILGPVVGGYPTELEDGFYLTAFICFLVFIL | 2.24
MTPPERLFLPRVCGTTLHLLLLGLLLVLLPGAQGLP | 3.6
SAMNPVIYTLASKEMRRAFFRLVCNCLVRGRGARAS | 0.274
PATTPMPSSSFLPEANLPPPLNWQYNYPSTASQTNR | 4.59
LFPPAFRRLFEFFVLLKALFVLFVLAYIHIVFSRSP | 1.77
MAREDSVKCLRCLLSALNLLFWLMSISVLAVSAWMR | 2.5
GEKFGIQFPFDLDVKIKALMLGATFLIEYMYFELWP | 0.611
VWPLNLLRPRGGPGYVDVCGLFLLQMATILGMVPAW | 1.02
LGGLVICSLLTLIVIFYYLGLLCGVCGYDRHATPTT | 3.21

Binder | enrichment score
TITPFRKTMSTASAYTAGLTGILGLGIAAPNLAFSQ | 2.01
PFYPGYTNYGSFGHLHGHPGPGPGPTTGPGSHFNGL | -0.516
MHGDNLPCASLPFLLAVCFMGSLITRLLSLGTVHIY | 3.4
EAEAGWIEGAAILLSVICVVLVTAFNDWSKEKQFRG | 4.52
CVLGFIACSVFLRMSLEPKVVLLTVALVAYLVLFNL | 0.442
MKVISLLILVGFIGEFQSFSSASSPVNCQWDFYAPW | -0.317
LSTRPGYLWVVWIYRNLIGSVHFFFILTLIVLIITY | -1.49
KQQTHVRKHQFDHGELVYHALQLLAYTALGILIMRL | 2.13
IDPVVLVLMVGVVMFTLGFAGCVGALRENICLLNFF | 0.322
TALLIFTGAFLLGYVAFRGSCQACGDSVLVVSEDVD | 4.25
GICIVFGFIILLLLVLRRRRDSLSLSTQRTQGPESA | 1.93
ALSCLLVLLFVDEPKLNTSRLHRVLRNLCYHAQTRH | 0.778
MATGLQVPLPWLATGLLLLLSVQPWAESGKVLVVPS | 3.51
CITALLGCFLLILLSYAFIVAAILKIPSAEGRNKAF | 3.79
IIEDNHLSRISPPTFYGLNSLILLVLMNNVLTRLPD | 1.37
MTPNSTGEVPSPIPKGALGLSLALASLIITANLLLA | 3.8
FAAVVAWCTLIPLSCFPNNMPGSTRIKARKRKQLHF | 1.17
ICQLNCLLLLVSCVVILYSLKTHSLEARHEALSTCV | -0.66
YVKTGSVPSLAAWLLFGSLAGLGAYQLYQDPRNVWG | 1.39
KIQALCFGVLGVLFTAVSLSFMFANWATSQSRMSGH | 2.34
HWFSIINSVVVVFFLSGILSMIIIRTLRKDIANYNK | 3.37
FDFMEKATLLIYTKTLLLPVVMVITCFIFKKTVGDI | -0.45
